According to PubChem BioAssay AID493014 (National Center for Advancing Translational Sciences (NCATS), 2011):
This is one part of the list. Shown are side measurements of this screen, not its main read-out; they come without a call. The list favours compounds with an active or inconclusive main result. The note in brackets gives the kind of curve behind each potency; many fits are weak.

Experiment: qHTS Assay to Find Inhibitors of Chronic Active B-Cell Receptor Signaling
Settings: ABC-DLBCL IkBa-CBG/CBR reporter, luminescence ratio (green luciferase fused to IkBa over red control in TMD8 lymphoma cells), 4 h
Procedure, shortened: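 Compounds up to 46 uM were incubated four hours with TMD8 cells whose green CBG68 luciferase is fused to IkappaBalpha; red CBR luminescence normalised the signal, and concentration-effect curves were fitted to fusion, red and ratio data.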

[1] = measured here: CBR red luminescence, cell number

Row | Compound | AC50 [1] | AC50 (measured here: IkBa-CBG green luminescence)
1 | COc1cc(OC)c2c(-c3ccccc3)cc(=O)oc2c1C(CCN1CCCC(C)C1)c1ccc2c(c1)OCO2 (stereo not drawn) | 35.5 µM [falling, single point] | 
2 | O=C(NCc1ccccc1Br)c1ccc2c(c1)OCCO2 | 7.94 µM [falling, partial curve, poor fit] | 
3 | COc1cc(C2CC(c3cccnc3)=NN2c2ccc(F)cc2)cc(OC)c1OC (stereo not drawn) | 5.62 µM [rising, single point] | 
4 | O=C(NCc1cccnc1)c1ccccc1Br | 4.61 µM [rising, single point] | 
5 | COc1ccc(C(C)(C)C)cc1NC(=O)COC(=O)c1cc(SC)ccc1Cl | 29.1 µM [rising, single point] | 
6 | CCC(C)n1c(NC(=O)c2ccccc2)c(C#N)c2nc3ccccc3nc21 (stereo not drawn) | 7.94 µM [rising, partial curve] | 5.01 µM [falling, full curve]
7 | COc1cc2c(cc1OC)[C@H](C)N(C(=O)NCc1ccccc1)CC2 | 35.5 µM [rising, partial curve, poor fit] | 
8 | CC(C)=Cc1oc2ccc([N+](=O)[O-])cc2c1N1CCOCC1 | 20 µM [rising, partial curve, poor fit] | 
9 | CCC(=O)Oc1ccc(C(=O)Nc2ccc([N+](=O)[O-])cc2)cc1 | 7.94 µM [falling, partial curve] | 
10 | COc1ccc(N2CCN(C(=O)CN(C3CCCCC3)S(C)(=O)=O)CC2)cc1 | 35.5 µM [rising, partial curve, poor fit] | 
11 | CCN(c1ccccc1)S(=O)(=O)c1ccc(Cl)c(NC(=O)Nc2ccc(Cl)cc2C#N)c1 | 29.1 µM [falling, single point] | 
12 | CS(=O)(=O)Nc1cccc(C2=NN(C(=O)c3ccccc3)C(c3cccs3)C2)c1 (stereo not drawn) | 35.5 µM [falling, single point] | 
13 | Cc1occc1C(=O)NC1CCCCCCC1 | 1.3 µM [rising, full curve, poor fit] | 
14 | CCOC(=O)C1(C)Oc2ccccc2C(C(=O)OC)=C1C(=O)OC (stereo not drawn) | 16.4 µM [rising, partial curve, poor fit] | 
15 | Cc1ccc(NC(=O)CSCC(=O)N2CCN(c3cccc(C(F)(F)F)c3)CC2)cc1 | 29.1 µM [falling, single point] | 
16 | O=C(COCC(=O)N/N=C/c1ccc(F)cc1)N/N=C/c1ccc(F)cc1 | 6.51 µM [rising, single point] | 
17 | CN(C)/C=C/C(=O)c1ccc(F)cc1 | 12.6 µM [rising, partial curve, poor fit] | 

Structures listed so far that have fluorine, in the order listed:
Row | Compound | AC50 [1] | AC50 (measured here: IkBa-CBG green luminescence)
3 | COc1cc(C2CC(c3cccnc3)=NN2c2ccc(F)cc2)cc(OC)c1OC (stereo not drawn) | 5.62 µM [rising, single point] | 
15 | Cc1ccc(NC(=O)CSCC(=O)N2CCN(c3cccc(C(F)(F)F)c3)CC2)cc1 | 29.1 µM [falling, single point] | 
16 | O=C(COCC(=O)N/N=C/c1ccc(F)cc1)N/N=C/c1ccc(F)cc1 | 6.51 µM [rising, single point] | 
17 | CN(C)/C=C/C(=O)c1ccc(F)cc1 | 12.6 µM [rising, partial curve, poor fit] | 
